Primary screen of a compound library

The values are deposited in ChEMBL (CHEMBL3988442, “University of Dundee, Small-Polar-MMV Screening Library” (2021)).

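Whole-cell assay for inhibitors of Mycobacterium tuberculosis growth, labelled Cornell in the record; the read-out is not stated. The concentration is filed as 10 mM, unlikely as a test dose, so the dose is not known. Higher means stronger inhibition (inferred from two other growth screens of the library). Of about 53,000 compounds tested this way, about 900 (1.7%) reached 50% or more in at least one test.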

Values are the deposited “Percent Effect”, in %.
The controls that fix the scale are not given in the record; negative values are as filed.
Compounds were drawn at random from those tested, without regard to their results.

SMILES,Percent Effect
O=C(c1ccncc1F)N1CCCC(c2nccn2CC2CCC2)C1 (centres undefined),11.01%
Cc1cc(C(F)(F)F)nc(N2CCN(Cc3nccn3C)CC2)n1,-3.753%
Cc1nc(C)c(C)c(N2CCC3(CCOC3)C2)n1 (centres undefined),2.808%
c1cncc(CN2CCC(c3ccnc4nccn34)C2)c1 (centres undefined),12.62%
C[C@@H]1CN(Cc2ccncc2)C[C@@]1(O)C1CC1,30.48%
CC(C)N1CCCC(CNC(=O)c2ccnc(-n3ccnc3)c2)C1 (centres undefined),-6.38%
[H][C@]12CCC[C@@]1(COCC)CN(C(=O)COc1ccccc1OC)C2,13.03%
OC(CNCc1nnc2ccccn12)c1ccc2c(c1)OCO2 (centres undefined),22.93%
COCCOCCNC(=O)N1CCc2c(F)ccc(F)c2C1,-1.79%
CCn1c(SCC(=O)N2CCOCC2)nc2cc(C)[nH]c2c1=O,-2.084%
Cc1csc(C(Cc2ccsc2)NC(=O)c2cc(=O)n(C)c(=O)n2C)n1 (centres undefined),-13.69%
Cc1sc(N)nc1-c1ccc(Cl)cc1,-5.103%
Cc1nc(C2(O)CCCNCC2)sc1CCOc1ccccc1F.Cl (centres undefined),16.66%
Cc1nccc(C2CCCCN2Cc2ccccc2)n1 (centres undefined),-10.59%
COC(=O)c1ccc(NC(=O)CN2CCCCC2C2OCCO2)cc1 (centres undefined),4.042%
CC(C)c1cc(C2CCN(Cc3cc(F)cc(F)c3)CC2)[nH]n1,18.93%
CNc1cccc(CC2COCCN(C(=O)c3cncs3)C2)n1 (centres undefined),14.53%
Cc1nccn1CCCC(=O)N1CCCN(c2cccnn2)CC1,-6.232%
COc1cc(CNCc2c(C)nn(CC(C)C)c2N(C)C)ccn1,-17.24%
Cc1ccc(NC2CCCN(C3Cc4ccccc4C3)C2)nn1 (centres undefined),-18.43%
O=C(O)CCN(Cc1ccc(F)c(F)c1)C(=O)C1CC1,9.913%
Cc1cc(C(=O)N[C@H]2Cc3ccccc3[C@@H]2N)c(=O)[nH]c1C,-20.51%
CCc1noc(CN2CCN(C(=O)c3ccccn3)CC2)n1,-26.66%
c1ncn(CC2CCCN(CC3CCCCC3)C2)n1 (centres undefined),28.03%
CC(C)N(C)Cc1cncc2c1CCN(CC1CC1)C2.Cl.Cl.Cl,-22.2%
CCc1ccc(C(=O)O)cc1S(=O)(=O)N(C)c1cccc(C#N)c1,-4.019%
CC(C(=O)N1CCCCCC1)N1CCN(Cc2nccn2C)CC1 (centres undefined),-12.96%
COc1cccc(SCC(=O)N2CCCC(N3CCCC3=O)C2)c1 (centres undefined),-12.95%
CC(=O)NCC(=O)N1CCOC(c2cccc(N)n2)C1 (centres undefined),-14.71%
CCOCCN1CCN(Cc2nc(C)no2)CC1CC (centres undefined),29.2%
Cl.N#Cc1cccnc1OC1CCNCC1,-35.93%
Cc1cc(CC(=O)N(C)Cc2cccc(OC(C)C)c2)n[nH]1,4.865%
CCc1ccc(NC(=O)Nc2c(O)oc3ccccc3c2=O)cc1,-4.088%
CN(C)c1nc2n(c(=O)n1)CCN2C(=O)Nc1cccc(Cl)c1,-1.647%
CCC(=O)N1CCc2onc(CNS(C)(=O)=O)c2C1,-25.99%
O=C(O)C(F)(F)F.O=C1NCC[C@]12CN(Cc1nccs1)C[C@H]2c1ccccc1,4.342%
CC(=O)N1CCC(Nc2ccc(Br)cc2C#N)C1 (centres undefined),-0.01012%
CC(C)C1CN(C(=O)c2csc(CN(C)C)n2)CCC(=O)N1CC1CC1 (centres undefined),17.81%
Cn1nc(C2CCN(C(=O)c3cccs3)CC2)c2cccnc21,23.7%
O=C(NCCN1CCCCCC1=O)NCc1ccc(Cl)s1,10.34%
Cc1ccc(C(=O)N2CCn3c(COCC4CC4)cnc3C2C)s1 (centres undefined),23.63%
Cc1c(O)cccc1C(=O)N1CCCC2(C1)C(=O)N(C)c1ccccc12 (centres undefined),-4.726%
O=C(Nc1cccnc1)C1CN(C(=O)c2ccc3c(c2)OCO3)C1,13.41%
Cc1ccc(-n2c(C)nnc2SCC(O)COCc2ccco2)cc1 (centres undefined),26.22%
O=S(=O)(Nc1cnc(N2CCCC2)nc1)c1ccc(C(F)(F)F)cc1,101.9%
CC(C)CN(CC(O)c1ccccc1)C(=O)NC(C)C (centres undefined),-11.22%
CCC[C@H]1CN(C2CCOCC2)C[C@@H]1NC(=O)CCc1cnccn1,-5.011%
CC(C)c1nc2n(n1)CC(NCc1nc(-c3ccccn3)no1)CC2 (centres undefined),18.7%
O=C(O)C(F)(F)F.[H][C@@]12CN(Cc3nccs3)C[C@]1([H])CN(C(=O)N1CCOCC1)C2,17.29%
CN1C(=O)c2cccc(NC(=O)c3ccc4c(c3)OCCO4)c2C1=O,-18.36%
Cc1ccc(C(=O)N(C)Cc2cscn2)c(=O)[nH]1,-8.799%
COCC(O)CN(C)c1ccnc2ccc(Cl)cc12 (centres undefined),6.9%
O=C(c1cnccn1)N1CCCC(Cn2cc(C3CC3)nn2)C1 (centres undefined),-9.959%
CN(Cc1ccccc1)CC(C)(C)NC(=O)c1ccc(C(N)=O)cn1,22.33%
NC(=O)CN1CCCCC1c1nc(N)ncc1-c1cccc(F)c1 (centres undefined),-18.13%
Cn1c(C2CC2)nc2c1CCN(CCOc1ccc(C#N)cc1)C2,-19.01%
CN(C)CC1(O)CCN(C(=O)Cc2ccc3ccccc3c2)C1 (centres undefined),37.59%
CC1CCN(C(CNC(=O)Cn2cccn2)c2cccs2)CC1 (centres undefined),6.692%
O=C1NCCCC12CCN(Cc1ccc(-c3ccccc3)s1)C2 (centres undefined),10.53%
CCC(CC)C(=O)NC1CCCc2nc(N3CCOCC3)ncc21 (centres undefined),14.64%
O=C(NCCN1CCOCC1)c1cc(-c2ccccc2Cl)[nH]n1,0.05473%
O=C(O)C(F)(F)F.O=C(O)C(F)(F)F.[H][C@]12CCC[C@@H](CN(C)C3CC3)[C@@]1([H])CN(Cc1ccc(OC)nc1)C2,-10.93%
CCOc1ncccc1CNS(=O)(=O)c1ccc2c(c1)CCCC(=O)N2,23.19%
CC(C)(C)c1cn2nc(N3CCCC3Cn3cccn3)sc2n1 (centres undefined),-0.5011%
CCNC(c1ccc(Cl)cc1)c1cccnc1 (centres undefined),-16.23%
CC/N=c1\nc(NCC)nc2n1C(O)(Nc1cc(Cl)ccc1Cl)CS2 (centres undefined),-23.31%
COCCOc1nc(-c2ccccc2Cl)no1,22.71%
COCCn1cnnc1C1CCCN(C(C)C)C1 (centres undefined),-54.61%
CN1CCN(Cc2ccccc2CNC(=O)c2cc(Cl)ccc2F)CC1,-6.233%
COc1cccc(CC2CN(C3CCCCC3)CCO2)c1 (centres undefined),-17.36%
O=C(C1CCCC1)N1CCCC(c2nc(O)cc(-c3ccncc3)n2)C1 (centres undefined),-7.264%
O=C(O)C(F)(F)F.O=C(O)C(F)(F)F.O=C(O)c1c(-c2ccncc2)ncc2c1CCN(CC1CCOC1)C2 (centres undefined),-9.771%
Br.O=C(CN(C1=NCCCCC1)c1ccc(Cl)cc1)c1ccccc1,14.11%
COCCOCC(=O)Nc1ccc(C)cc1F,20.37%
CC(C)[C@H](NC(=O)c1cccc(CCC(C)(C)O)c1)C(N)=O,-3.19%
CS(=O)(=O)N1CCCCC1CCc1ccc(O)cc1 (centres undefined),-10.25%
CSc1ccc(C(C(=O)O)N2CCCC2)cc1 (centres undefined),-8.68%
CN1CCCN(C[C@H]2C[C@H](CO)CN(Cc3cccnc3N)C2)CC1,-10.87%
O=C(NCCN1CCOCC1)NCc1cccnc1-n1cccn1,14.28%
Cc1cc(=O)n(C)cc1NC(=O)Cc1cc(F)ccc1F,28.73%
CC(C)NC(=O)C(c1ccccc1)N1CCn2c(nnc2C2CC2)C1 (centres undefined),8.412%
Cn1ncc(CN2CCc3onc(-c4cccc(F)c4)c3C2)c1C1CC1,-29.55%
COc1ccc(NC(=O)c2cnc(C3CCN(C)CC3)nc2C)cc1,33.65%
CS(=O)(=O)N1CCCC12CCN(Cc1nccs1)C2.O=C(O)C(F)(F)F (centres undefined),13.27%
CCN(CC(=O)NC)S(=O)(=O)N1CCCCC1,-71.25%
CCCN(Cc1cccc(OCCO)c1)Cc1ccccc1OC,-3.989%
CCC(NC(=O)c1c(C(=O)O)cnn1C)c1ccc(C)cc1C (centres undefined),12.99%
COc1cnc(N2CCCN(Cc3ccc(F)cc3)CC2)nc1,28.94%
O=C(O)C(F)(F)F.O=C(O)C(F)(F)F.[H][C@@]12CCN(c3ccc(C)nn3)C[C@]1([H])[C@@H](CN(C)Cc1ccco1)OC2,11.51%
Cc1cc2ncn(C(=O)N3CCCC3)c2cc1C,19.54%
COCCCNC(=O)CN1CCOC(c2ccccc2)C1 (centres undefined),-6.394%
COc1ccccc1NC(=O)c1[nH]nc(C(C)C)c1Br,17.86%
N#Cc1ccc(C(=O)N2CCOC[C@H](Oc3cnccn3)C2)cc1,8.963%
[H][C@]12CC[C@](O)(c3ccc(C)cc3)[C@@]1([H])CN(S(=O)(=O)C(C)C)C2,-2.139%
Cc1nc(C(=O)N2CCOC(c3nc(C(C)C)n[nH]3)C2)c[nH]1 (centres undefined),-24.23%

The first 10 entries again:

For O=C(c1ccncc1F)N1CCCC(c2nccn2CC2CCC2)C1 (centres undefined) the result was 11.01%.
For Cc1cc(C(F)(F)F)nc(N2CCN(Cc3nccn3C)CC2)n1 the result was -3.753%.
For Cc1nc(C)c(C)c(N2CCC3(CCOC3)C2)n1 (centres undefined) the result was 2.808%.
For c1cncc(CN2CCC(c3ccnc4nccn34)C2)c1 (centres undefined) the result was 12.62%.
For C[C@@H]1CN(Cc2ccncc2)C[C@@]1(O)C1CC1 the result was 30.48%.
For CC(C)N1CCCC(CNC(=O)c2ccnc(-n3ccnc3)c2)C1 (centres undefined) the result was -6.38%.
For [H][C@]12CCC[C@@]1(COCC)CN(C(=O)COc1ccccc1OC)C2 the result was 13.03%.
For OC(CNCc1nnc2ccccn12)c1ccc2c(c1)OCO2 (centres undefined) the result was 22.93%.
For COCCOCCNC(=O)N1CCc2c(F)ccc(F)c2C1 the result was -1.79%.
For CCn1c(SCC(=O)N2CCOCC2)nc2cc(C)[nH]c2c1=O the result was -2.084%.